These results are taken from doi:10.1101/2020.03.16.993188 (bioRxiv, 2020).

Assay [1] concerns the target T1, Synechocystis sp. PCC 6803 GCS P-protein (glycine decarboxylase), recombinant (Synechocystis sp. PCC 6803) (UniProt P74416).
T1 sequence: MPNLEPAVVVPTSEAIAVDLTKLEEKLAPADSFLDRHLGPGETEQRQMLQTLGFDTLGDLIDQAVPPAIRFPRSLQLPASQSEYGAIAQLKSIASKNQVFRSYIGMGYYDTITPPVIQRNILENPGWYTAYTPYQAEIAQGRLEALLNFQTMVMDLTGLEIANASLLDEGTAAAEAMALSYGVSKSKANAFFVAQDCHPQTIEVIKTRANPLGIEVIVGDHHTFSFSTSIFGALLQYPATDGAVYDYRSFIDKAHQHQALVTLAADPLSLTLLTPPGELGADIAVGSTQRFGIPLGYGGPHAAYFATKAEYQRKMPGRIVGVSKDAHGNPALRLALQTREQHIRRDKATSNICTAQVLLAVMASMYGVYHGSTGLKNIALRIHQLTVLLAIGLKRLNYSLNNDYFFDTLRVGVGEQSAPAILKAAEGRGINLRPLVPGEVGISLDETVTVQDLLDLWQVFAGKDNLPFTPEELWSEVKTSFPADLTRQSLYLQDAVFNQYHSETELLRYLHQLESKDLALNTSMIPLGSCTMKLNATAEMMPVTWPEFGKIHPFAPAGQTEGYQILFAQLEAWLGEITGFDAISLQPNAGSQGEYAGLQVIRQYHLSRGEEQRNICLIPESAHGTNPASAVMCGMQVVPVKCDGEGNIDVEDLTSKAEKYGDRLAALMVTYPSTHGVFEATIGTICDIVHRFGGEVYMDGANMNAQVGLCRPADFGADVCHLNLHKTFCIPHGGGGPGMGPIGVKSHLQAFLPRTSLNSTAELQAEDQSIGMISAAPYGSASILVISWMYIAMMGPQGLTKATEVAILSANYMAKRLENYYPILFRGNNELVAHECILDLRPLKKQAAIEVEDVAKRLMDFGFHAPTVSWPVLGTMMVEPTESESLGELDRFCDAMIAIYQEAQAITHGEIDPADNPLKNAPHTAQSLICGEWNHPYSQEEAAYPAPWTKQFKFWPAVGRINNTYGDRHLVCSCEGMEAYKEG
Description: affinity purification with mass spectrometry.

Assay [2] concerns the target T2, Synechocystis sp. PCC 6803 GCS L-protein (dihydrolipoamide dehydrogenase), recombinant (Synechocystis sp. PCC 6803) (UniProt P72740).
T2 sequence: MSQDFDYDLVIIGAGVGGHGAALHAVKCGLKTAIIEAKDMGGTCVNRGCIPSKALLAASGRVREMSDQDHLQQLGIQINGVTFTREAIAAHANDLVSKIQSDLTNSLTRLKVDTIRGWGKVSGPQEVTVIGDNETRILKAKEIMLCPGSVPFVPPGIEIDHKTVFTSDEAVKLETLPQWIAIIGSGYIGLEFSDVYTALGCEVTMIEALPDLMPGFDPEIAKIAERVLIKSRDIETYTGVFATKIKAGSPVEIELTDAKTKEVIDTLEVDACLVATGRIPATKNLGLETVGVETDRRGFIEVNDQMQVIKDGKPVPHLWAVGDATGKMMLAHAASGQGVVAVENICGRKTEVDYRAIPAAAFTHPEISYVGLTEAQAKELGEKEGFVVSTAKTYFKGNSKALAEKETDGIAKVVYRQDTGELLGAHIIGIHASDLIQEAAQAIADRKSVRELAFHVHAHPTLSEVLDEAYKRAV
Description: affinity purification with mass spectrometry.

No constants are given. Whether binding was seen depends on the method and setting. Binding seen in cells or lysates may run through a third protein. These calls come from enrichment with a bait or labelling near it, and not all partners need be listed.

B1: Synechocystis H-protein, endogenous in Synechocystis lysate (protein, UniProt P73560 1-132)
chain: MELEHPDDLYYLDSHEYVRFDGETATIGLSAFAVDELGDIVFVELPEEGDKVEFEQSMGAVESVKAASDLYSPVTGTVIEKNSALEDQPELLNQDPYGEEGWLIKVRLDDVEDAKEGLMAAGDYRATLETGD
As to B1, the binding result in assay [1] and in assay [2] was “binds” each time.
